Results from the supplement of paper PMC3334620.
Over roughly 33,000 sequences, “E-score (-0.5 to 0.5)” has its median near -0.015; the highest 2% begin near 0.3. Some of the results follow.

target: T1, Abf1 (UniProt P14164); assay: PBM E-score (8-mer binding enrichment) (E-score (-0.5 to 0.5)); higher = stronger / more preferred TF binding; conditions: protein concentration: 200 nM; construct: GST-full length
T1 sequence: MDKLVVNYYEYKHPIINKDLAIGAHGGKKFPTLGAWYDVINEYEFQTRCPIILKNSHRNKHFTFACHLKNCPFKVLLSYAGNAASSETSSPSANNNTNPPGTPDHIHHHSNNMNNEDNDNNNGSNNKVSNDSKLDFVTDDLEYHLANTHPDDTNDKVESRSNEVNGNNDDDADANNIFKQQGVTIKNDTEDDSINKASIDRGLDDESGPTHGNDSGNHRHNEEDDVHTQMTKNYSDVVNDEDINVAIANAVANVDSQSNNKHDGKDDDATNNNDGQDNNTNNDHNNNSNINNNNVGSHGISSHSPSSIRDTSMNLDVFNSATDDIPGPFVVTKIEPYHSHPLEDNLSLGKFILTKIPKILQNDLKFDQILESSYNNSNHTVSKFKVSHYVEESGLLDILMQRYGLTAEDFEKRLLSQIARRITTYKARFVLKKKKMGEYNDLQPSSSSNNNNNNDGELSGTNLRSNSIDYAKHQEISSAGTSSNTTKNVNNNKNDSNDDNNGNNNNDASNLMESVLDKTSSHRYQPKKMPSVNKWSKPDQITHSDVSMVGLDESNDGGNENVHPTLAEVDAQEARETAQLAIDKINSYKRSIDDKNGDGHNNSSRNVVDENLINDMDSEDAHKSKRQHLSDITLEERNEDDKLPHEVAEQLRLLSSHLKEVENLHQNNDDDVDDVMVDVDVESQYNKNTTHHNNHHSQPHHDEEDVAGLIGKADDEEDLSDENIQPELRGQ
In short: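 Full-length yeast transcription factors or their DNA-binding domains, GST-tagged and expressed with PURExpress, were applied at about 100-200 nM to universal all-10-mer Agilent arrays. These arrays had been made double-stranded by primer extension on fresh or once-stripped slides. Detection used fluorescent anti-GST, normalisation used masliner, and E-scores for ungapped eight-base words pooled with reverse complements came from the Universal PBM Analysis Suite.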

Compared with CACACCAC, TACGTTCA is higher in “PBM E-score” value: -0.0463 for the first, 0.166 for the second.

Compared with CAACGTGA, ATGATGCG is lower in “PBM E-score” value: 0.181 for the first, 0.104 for the second.

First: CCGCGCCG
Second: CCCGAGTC
The “PBM E-score” value of the first is higher: 0.00761 for the first, -0.128 for the second.

Going from ATTGATCG to ATGGCAGA, the “PBM E-score” value falls from 0.114 to 0.079.

Compared with AAACTGCG, ATGCGCGG is higher in “PBM E-score” value: -0.119 for the first, -0.0091 for the second.

Going from GTTTGTTA to ATCCAAAG, the “PBM E-score” value rises from 0.0326 to 0.086.

Going from CGCCGCCG to AAGGGGGG, the “PBM E-score” value falls from -0.223 to -0.462.

Compared with ACTAGGGC, CAATCGTA is higher in “PBM E-score” value: -0.166 for the first, 0.216 for the second.

First: GTCCTAAC
Second: CACAGCGC
The “PBM E-score” value of the first is higher: 0.201 for the first, -0.107 for the second.

First: CAATTTCA
Second: AAAATACG
The “PBM E-score” value of the first is higher: 0.0575 for the first, 0.0051 for the second.

Going from CGGTCTAG to GGAGGGCA, the “PBM E-score” value falls from 0.0644 to -0.214.

Going from TACTGGAA to GACTCTAC, the “PBM E-score” value falls from 0.115 to -0.175.

Compared with CAGTACTG, ATGGATGC is higher in “PBM E-score” value: -0.137 for the first, -0.0845 for the second.

Going from ATTAACCG to ACTCCATC, the “PBM E-score” value falls from 0.0444 to 0.0155.

Compared with AGTGTCAG, AAGTTAGG is higher in “PBM E-score” value: -0.234 for the first, -0.0273 for the second.

Compared with CTTAGGGA, ACTCGTCA is higher in “PBM E-score” value: 0.0613 for the first, 0.0988 for the second.

Compared with CCCCAACG, CGAGTAAC is higher in “PBM E-score” value: -0.0545 for the first, 0.176 for the second.

Going from ACTTCCCC to TTCGACAA, the “PBM E-score” value rises from -0.123 to 0.00117.

Going from CTAGCACA to ACGTGCAT, the “PBM E-score” value rises from -0.185 to 0.099.

Going from CAGCACAC to ACAACAAG, the “PBM E-score” value rises from -0.247 to 0.0411.

First: GTGTATCA
Second: GGACCCTA
The “PBM E-score” value of the first is higher: 0.178 for the first, -0.301 for the second.

First: GCTGCGGA
Second: AGTGTCTC
The “PBM E-score” value of the first is lower: -0.0981 for the first, -0.0718 for the second.

First: CCGTTTAA
Second: AATCCTCG
The “PBM E-score” value of the first is higher: 0.266 for the first, -0.221 for the second.

Going from ACCAGTTA to CGCTGTCA, the “PBM E-score” value falls from 0.035 to -0.0219.

Going from ATATGGCA to CACCCACG, the “PBM E-score” value rises from 0.0158 to 0.262.

First: GCTGCCAA
Second: GATGTTGC
The “PBM E-score” value of the first is lower: -0.152 for the first, 0.114 for the second.

Going from ACAGACTC to CACACAGG, the “PBM E-score” value rises from -0.304 to -0.154.

Compared with GTTCTTCA, AAATCGTA is higher in “PBM E-score” value: 0.117 for the first, 0.267 for the second.

Compared with ATGGCAAC, GAATGGTA is higher in “PBM E-score” value: 0.0541 for the first, 0.0616 for the second.

Going from GTGTGTGA to AGTTCTTG, the “PBM E-score” value falls from 0.189 to 0.0398.

First: CACTGCAC
Second: ATGGTAAA
The “PBM E-score” value of the first is higher: 0.0334 for the first, 0.0326 for the second.

First: CGGAATAA
Second: AAGATCGT
The “PBM E-score” value of the first is lower: -0.274 for the first, 0.332 for the second.

Compared with CTTTTTAC, AAAGATCC is lower in “PBM E-score” value: 0.136 for the first, 0.00287 for the second.

Compared with AGGTTCCG, CTCTTTTA is lower in “PBM E-score” value: 0.0891 for the first, -0.0551 for the second.

Compared with CAGGGTCG, CCCGGATC is higher in “PBM E-score” value: -0.234 for the first, -0.174 for the second.

Going from TGCACAAA to AGCCATAC, the “PBM E-score” value rises from -0.105 to 0.00148.

Going from ATCCTTGC to AACCATTG, the “PBM E-score” value rises from -0.28 to -0.158.

First: CAGAATGA
Second: GAAATGAA
The “PBM E-score” value of the first is higher: 0.181 for the first, 0.164 for the second.

First: CCAGAACC
Second: CCAAAGCA
The “PBM E-score” value of the first is lower: -0.0419 for the first, -0.0169 for the second.

Compared with AATTACCC, AGCTTGGG is lower in “PBM E-score” value: 0.0522 for the first, -0.143 for the second.

Compared with GGTTTGCA, CGACGAAG is higher in “PBM E-score” value: -0.0592 for the first, 0.357 for the second.

First: GTGTAGAA
Second: CTATAGAC
The “PBM E-score” value of the first is higher: 0.114 for the first, -0.0763 for the second.

Going from CCCTAGCA to GCTCTGCC, the “PBM E-score” value falls from -0.289 to -0.314.

First: ACTACCTA
Second: CATTGAGA
The “PBM E-score” value of the first is higher: 0.0953 for the first, 0.0238 for the second.

Compared with GGATTCCC, CAGCGTCA is higher in “PBM E-score” value: -0.217 for the first, -0.0771 for the second.

Compared with CCAGGTCA, AGCAAACA is higher in “PBM E-score” value: -0.0403 for the first, -0.0309 for the second.

Compared with GGGTTAAC, CCTCTTAC is lower in “PBM E-score” value: -0.0685 for the first, -0.233 for the second.

Compared with AATCTGAT, TGGCTCAA is lower in “PBM E-score” value: 0.22 for the first, -0.0517 for the second.

Compared with CATTGCGA, AGTTCCTG is lower in “PBM E-score” value: 0.00247 for the first, -0.136 for the second.

Going from CGTTCAAA to CCAGGCAA, the “PBM E-score” value falls from 0.199 to -0.0297.

Compared with CTGCACCA, CCTAGTAC is higher in “PBM E-score” value: -0.194 for the first, 0.0377 for the second.

Going from TGCAACCA to GTGGTGAA, the “PBM E-score” value falls from -0.0685 to -0.0783.

Going from CCTGGACA to ACGACGGG, the “PBM E-score” value rises from -0.0296 to 0.304.

First: CTCATGCC
Second: AGCGAGAC
The “PBM E-score” value of the first is higher: -0.0956 for the first, -0.193 for the second.

Compared with CTTTTGTA, ATTCCCCA is lower in “PBM E-score” value: 0.105 for the first, -0.136 for the second.

Compared with GGTTATCA, CTTCTGGC is lower in “PBM E-score” value: 0.272 for the first, -0.17 for the second.

First: AACTTTGT
Second: CAGTAACC
The “PBM E-score” value of the first is higher: -0.0289 for the first, -0.0485 for the second.

First: CACGGGCA
Second: CCCTTAAC
The “PBM E-score” value of the first is higher: 0.00373 for the first, -0.163 for the second.

First: AGACCCTC
Second: ATCACTTC
The “PBM E-score” value of the first is lower: -0.268 for the first, 0.376 for the second.

First: GGACCTAA
Second: GGTGTGGA
The “PBM E-score” value of the first is lower: -0.114 for the first, -0.0215 for the second.

Going from CATTCACG to CGTGGAAG, the “PBM E-score” value falls from 0.123 to 0.113.

First: CGCCTTAA
Second: GGGGGACA
The “PBM E-score” value of the first is higher: 0.0103 for the first, -0.0703 for the second.

Going from AGAGGTCA to CGCCGTGA, the “PBM E-score” value rises from 0.0222 to 0.232.

First: CACGGGGC
Second: CGCCATGC
The “PBM E-score” value of the first is higher: 0.143 for the first, -0.0441 for the second.

First: ATATAATA
Second: GGGTAACA
The “PBM E-score” value of the first is higher: 0.0977 for the first, -0.205 for the second.

Compared with CACGCGTC, CCTTTGCA is lower in “PBM E-score” value: 0.227 for the first, 0.0165 for the second.

Compared with GCTAAGTA, CCGTATTC is higher in “PBM E-score” value: 0.126 for the first, 0.25 for the second.

Going from AGCGGCCT to AGCTGACA, the “PBM E-score” value rises from -0.203 to -0.181.

Compared with GCTGCGCA, AGTTGTAG is higher in “PBM E-score” value: -0.185 for the first, 0.0291 for the second.

Going from ACGCTCGA to ACAAGGGA, the “PBM E-score” value falls from 0.00667 to -0.0819.

Compared with TAAACTGA, CACACCGC is lower in “PBM E-score” value: 0.0308 for the first, -0.155 for the second.

Compared with AACATAGG, AGTAAGAG is lower in “PBM E-score” value: -0.0696 for the first, -0.18 for the second.

First: ACGTCGGC
Second: CCTCCAAA
The “PBM E-score” value of the first is higher: 0.211 for the first, -0.116 for the second.

First: GCGTCACA
Second: AAAGGCTA
The “PBM E-score” value of the first is higher: 0.02 for the first, -0.0405 for the second.

Compared with ACCTATTC, ACCGCACA is lower in “PBM E-score” value: -0.0249 for the first, -0.186 for the second.

Compared with AAGTCCGG, AAATCGGA is lower in “PBM E-score” value: 0.107 for the first, -0.0585 for the second.

Going from GTCATTGA to GATTCTAA, the “PBM E-score” value falls from 0.0887 to -0.03.

Going from ATCTATCG to AGCAAGTC, the “PBM E-score” value falls from 0.0184 to -0.261.

First: ATAACTGC
Second: ATTTTCTG
The “PBM E-score” value of the first is higher: 0.00386 for the first, -0.0421 for the second.

Going from AAGCCCCA to ACGGAGCT, the “PBM E-score” value rises from -0.232 to 0.0853.

Compared with CGTACTGA, ACGACGTC is lower in “PBM E-score” value: 0.205 for the first, 0.141 for the second.

Going from CAAGAGAA to CGCCCCTA, the “PBM E-score” value falls from -0.00821 to -0.0884.

Going from AACAGTAG to CGGACTGA, the “PBM E-score” value falls from 0.0252 to -0.16.

First: GTAACACA
Second: AAAGTCGC
The “PBM E-score” value of the first is lower: 0.0484 for the first, 0.128 for the second.

Going from AATCAGAG to GGACTAAA, the “PBM E-score” value rises from 0.011 to 0.0347.

Compared with CGATCGGC, CCCGAAGA is lower in “PBM E-score” value: 0.0275 for the first, -0.25 for the second.
